Test results taken from US20250295804A1 (Shenzhen Enduring Biotech, Ltd., priority 2022, published 2025).

Test: general procedure: solution-phase peptide synthesis; EDCI/HOBt
Details: conjugation step

Substance	conjugation yield [%]
20k mPEG-Lys(Mal)-(MMAE)4	22
30kmPEG-Lys(Mal)-(MMAE)2	47
